In publication doi:10.1101/2021.07.21.452842:
These are yes or no findings as the source states them, for the method shown. In cells and extracts the contact can be indirect. These calls come from enrichment with a bait or labelling near it, and not all partners need be listed.

The chains behind the UniProt entries cited, without tags or fusion partners. Where a name states a change or a piece, a line headed by the entry shows the natural chain unless it says otherwise. A line that says so, or that is headed by a name, gives the form on record, which may keep a tag or linker.
mycBirA-tagged full-length GIV (Q3V6T2, form named): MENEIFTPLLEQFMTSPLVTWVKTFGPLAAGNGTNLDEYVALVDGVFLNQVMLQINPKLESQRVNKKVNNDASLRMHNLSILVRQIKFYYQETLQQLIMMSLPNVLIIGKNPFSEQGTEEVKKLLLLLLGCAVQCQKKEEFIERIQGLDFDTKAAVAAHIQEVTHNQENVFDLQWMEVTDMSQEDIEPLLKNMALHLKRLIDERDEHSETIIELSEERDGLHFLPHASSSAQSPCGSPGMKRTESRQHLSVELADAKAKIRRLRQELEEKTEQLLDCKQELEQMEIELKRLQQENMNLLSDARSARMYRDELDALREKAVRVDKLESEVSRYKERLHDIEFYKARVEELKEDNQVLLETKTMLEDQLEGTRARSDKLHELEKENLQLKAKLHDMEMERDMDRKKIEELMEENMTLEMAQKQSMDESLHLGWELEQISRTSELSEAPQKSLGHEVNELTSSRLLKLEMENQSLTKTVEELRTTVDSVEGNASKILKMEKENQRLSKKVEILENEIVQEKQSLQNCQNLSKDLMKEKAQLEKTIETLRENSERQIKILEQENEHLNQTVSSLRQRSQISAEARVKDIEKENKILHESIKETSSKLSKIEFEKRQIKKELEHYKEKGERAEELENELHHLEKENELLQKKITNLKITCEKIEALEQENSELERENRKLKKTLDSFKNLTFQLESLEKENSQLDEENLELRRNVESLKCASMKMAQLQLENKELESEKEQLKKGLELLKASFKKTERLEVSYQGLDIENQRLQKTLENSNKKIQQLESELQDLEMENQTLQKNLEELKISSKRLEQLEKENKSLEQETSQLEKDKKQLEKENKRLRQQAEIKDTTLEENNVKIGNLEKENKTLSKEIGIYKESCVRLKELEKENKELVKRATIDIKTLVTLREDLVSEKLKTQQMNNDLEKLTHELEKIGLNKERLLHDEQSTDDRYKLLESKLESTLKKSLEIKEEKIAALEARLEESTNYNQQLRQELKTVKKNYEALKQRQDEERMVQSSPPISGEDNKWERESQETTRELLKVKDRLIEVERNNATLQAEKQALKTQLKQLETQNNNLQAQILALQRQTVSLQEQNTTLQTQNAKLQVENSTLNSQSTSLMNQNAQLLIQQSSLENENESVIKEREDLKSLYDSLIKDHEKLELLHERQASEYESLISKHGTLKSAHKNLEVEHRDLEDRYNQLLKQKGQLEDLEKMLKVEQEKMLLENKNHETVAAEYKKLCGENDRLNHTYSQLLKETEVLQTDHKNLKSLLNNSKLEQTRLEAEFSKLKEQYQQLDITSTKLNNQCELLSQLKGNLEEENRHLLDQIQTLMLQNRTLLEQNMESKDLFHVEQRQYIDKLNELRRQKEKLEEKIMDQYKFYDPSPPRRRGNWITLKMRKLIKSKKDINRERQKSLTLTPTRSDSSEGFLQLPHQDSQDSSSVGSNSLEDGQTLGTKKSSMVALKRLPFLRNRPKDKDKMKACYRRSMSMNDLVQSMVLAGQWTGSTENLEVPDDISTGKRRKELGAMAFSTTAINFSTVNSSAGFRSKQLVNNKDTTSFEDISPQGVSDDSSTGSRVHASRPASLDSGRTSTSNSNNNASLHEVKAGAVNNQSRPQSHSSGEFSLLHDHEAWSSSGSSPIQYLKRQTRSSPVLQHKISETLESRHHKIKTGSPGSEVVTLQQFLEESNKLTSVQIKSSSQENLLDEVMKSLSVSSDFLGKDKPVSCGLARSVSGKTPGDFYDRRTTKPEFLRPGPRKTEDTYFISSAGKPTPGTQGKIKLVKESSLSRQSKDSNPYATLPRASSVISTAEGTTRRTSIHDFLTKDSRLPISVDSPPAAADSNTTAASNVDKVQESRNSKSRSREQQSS
UniProt Q13535: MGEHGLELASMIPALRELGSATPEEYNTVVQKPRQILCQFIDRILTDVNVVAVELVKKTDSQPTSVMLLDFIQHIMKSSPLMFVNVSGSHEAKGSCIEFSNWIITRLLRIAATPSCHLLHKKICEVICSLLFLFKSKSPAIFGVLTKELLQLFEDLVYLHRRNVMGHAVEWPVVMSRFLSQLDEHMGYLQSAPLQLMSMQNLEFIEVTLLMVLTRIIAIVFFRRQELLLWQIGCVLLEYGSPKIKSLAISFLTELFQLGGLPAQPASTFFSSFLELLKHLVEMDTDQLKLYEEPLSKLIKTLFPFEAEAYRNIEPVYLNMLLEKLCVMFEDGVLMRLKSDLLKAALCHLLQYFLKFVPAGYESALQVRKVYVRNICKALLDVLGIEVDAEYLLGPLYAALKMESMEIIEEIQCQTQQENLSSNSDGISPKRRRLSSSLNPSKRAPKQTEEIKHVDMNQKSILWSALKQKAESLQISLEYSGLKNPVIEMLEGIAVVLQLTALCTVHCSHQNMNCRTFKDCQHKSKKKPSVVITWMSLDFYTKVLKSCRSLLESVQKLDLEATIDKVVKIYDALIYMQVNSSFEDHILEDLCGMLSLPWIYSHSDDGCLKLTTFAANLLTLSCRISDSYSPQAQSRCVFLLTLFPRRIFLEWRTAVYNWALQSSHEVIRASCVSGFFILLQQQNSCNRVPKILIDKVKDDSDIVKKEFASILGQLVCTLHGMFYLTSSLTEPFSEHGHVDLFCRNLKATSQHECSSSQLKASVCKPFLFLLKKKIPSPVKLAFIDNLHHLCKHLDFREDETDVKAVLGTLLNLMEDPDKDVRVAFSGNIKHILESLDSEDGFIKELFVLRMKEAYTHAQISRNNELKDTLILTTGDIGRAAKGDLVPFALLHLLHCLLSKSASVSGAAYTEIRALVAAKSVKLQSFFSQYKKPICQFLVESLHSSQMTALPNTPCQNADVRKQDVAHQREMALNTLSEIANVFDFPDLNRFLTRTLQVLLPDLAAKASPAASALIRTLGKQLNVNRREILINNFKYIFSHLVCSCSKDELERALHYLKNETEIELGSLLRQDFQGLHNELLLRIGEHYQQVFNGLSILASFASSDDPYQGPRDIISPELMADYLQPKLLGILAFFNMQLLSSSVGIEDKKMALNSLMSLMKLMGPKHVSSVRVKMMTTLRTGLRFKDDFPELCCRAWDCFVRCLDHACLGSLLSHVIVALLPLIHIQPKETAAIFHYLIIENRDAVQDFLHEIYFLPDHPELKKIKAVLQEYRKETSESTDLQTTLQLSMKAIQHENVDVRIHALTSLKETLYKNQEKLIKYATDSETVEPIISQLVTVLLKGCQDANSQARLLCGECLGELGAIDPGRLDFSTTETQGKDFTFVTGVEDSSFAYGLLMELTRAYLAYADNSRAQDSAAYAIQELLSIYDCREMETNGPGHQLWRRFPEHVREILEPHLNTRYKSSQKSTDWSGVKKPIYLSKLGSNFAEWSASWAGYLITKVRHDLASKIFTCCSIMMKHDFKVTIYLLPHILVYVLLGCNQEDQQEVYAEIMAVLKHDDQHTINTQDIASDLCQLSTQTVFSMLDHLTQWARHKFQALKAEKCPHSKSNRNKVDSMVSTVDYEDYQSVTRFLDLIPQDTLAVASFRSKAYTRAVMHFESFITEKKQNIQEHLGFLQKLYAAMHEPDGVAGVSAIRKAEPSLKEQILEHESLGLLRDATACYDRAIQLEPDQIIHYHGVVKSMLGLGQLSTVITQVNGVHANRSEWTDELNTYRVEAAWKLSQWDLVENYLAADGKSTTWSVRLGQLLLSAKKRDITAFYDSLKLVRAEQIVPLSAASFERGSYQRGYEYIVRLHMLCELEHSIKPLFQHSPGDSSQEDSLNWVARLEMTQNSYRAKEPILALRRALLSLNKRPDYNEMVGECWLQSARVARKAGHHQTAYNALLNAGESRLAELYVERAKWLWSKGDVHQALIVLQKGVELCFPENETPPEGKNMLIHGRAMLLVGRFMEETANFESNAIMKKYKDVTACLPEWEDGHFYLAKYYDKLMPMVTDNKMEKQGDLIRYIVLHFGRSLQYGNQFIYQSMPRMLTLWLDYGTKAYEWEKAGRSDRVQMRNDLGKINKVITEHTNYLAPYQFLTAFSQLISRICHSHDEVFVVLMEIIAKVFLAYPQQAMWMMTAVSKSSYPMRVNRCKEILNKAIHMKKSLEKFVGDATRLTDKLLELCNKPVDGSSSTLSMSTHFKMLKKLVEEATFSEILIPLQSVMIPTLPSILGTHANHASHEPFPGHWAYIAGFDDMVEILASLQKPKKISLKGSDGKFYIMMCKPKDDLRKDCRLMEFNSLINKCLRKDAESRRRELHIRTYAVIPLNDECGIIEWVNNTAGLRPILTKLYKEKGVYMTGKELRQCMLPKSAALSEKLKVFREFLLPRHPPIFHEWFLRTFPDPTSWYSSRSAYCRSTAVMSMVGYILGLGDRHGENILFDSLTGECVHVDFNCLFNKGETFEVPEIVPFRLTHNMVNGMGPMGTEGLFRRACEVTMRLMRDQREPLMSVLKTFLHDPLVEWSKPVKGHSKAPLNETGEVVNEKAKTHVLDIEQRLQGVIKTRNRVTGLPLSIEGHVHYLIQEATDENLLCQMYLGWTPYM

Molecular target: mycBirA-tagged full-length GIV (UniProt Q3V6T2)
Experiment: proximity labelling

## Ataxia telangiectasia and Rad3 related protein (ATR), endogenous (from UniProt Q13535 1-2644)
  binding: binds
